Results taken from US20240228639A1.

Tests used:
[1] = biological target: ANTI-FLT3 CAR; assay: flow cytometry, Clone 60-PE on anti-FLT3 CAR T cells (concentration from paragraph 212)
[2] = biological target: ANTI-CD19 CAR; assay: flow cytometry, Clone 60-PE on anti-CD19 CAR T cells (concentration from paragraph 212)
[3] = biological target: ANTI-BCMA CAR; assay: flow cytometry, Clone 60-PE on anti-BCMA CAR T cells (concentration from paragraph 212)

Measured: binding

B1: anti-idiotype antibody Clone 60 (IDA2002-1.60) (antibody, mouse IgG1, kappa, V domains shown)
VH: EVQLQQSGPELVKTGTSVKISCKASGYSITGYYIHWVKQSHGRSLDWIGSISFYNGATTYNQKFKGKVTFTVDTSSSTAYMQFNSLTSEDSAVYYCGRRGDDYDVFAYWGQGTLVTVSA
VL: DIVLTQSPASLAVSLGQRATISCRASESVDSYGYSFLHWYQQKPGQPPTLLIYRASNLESGIPARFSGSGSRTDFTLTINSVEADDVATYYCQQSNEDPWTFGGGTKLEIKR
no binding (tested: 3 ug/mL): [1] | [2] | [3]

Results are given in words; binding and its absence hold for the method and conditions named.
